# Microarray screen: hit calls

Calls as published in the ROBIN set (doi:10.1002/anie.202211358).

Targets, with sequences 5′ to 3′:
T1: SAM-II riboswitch RNA pseudoknot, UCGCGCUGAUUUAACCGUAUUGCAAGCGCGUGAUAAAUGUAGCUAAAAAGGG. About 21,000 compounds screened, about 200 hits.
T2: PreQ1 riboswitch RNA pseudoknot, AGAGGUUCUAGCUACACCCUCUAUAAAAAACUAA. From B. subtilis. About 24,000 compounds screened, about 170 hits.
T3: TPP riboswitch RNA three-way junction, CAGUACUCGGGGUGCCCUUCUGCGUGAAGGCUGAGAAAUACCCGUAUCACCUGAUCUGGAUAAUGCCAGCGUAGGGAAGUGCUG. About 24,000 compounds screened, about 160 hits.

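Each compound is printed as two spots on a slide made to bind it covalently, so it has no test concentration; the read-out is fluorescence of the bound, labelled oligonucleotide. For the PreQ1, TPP and SAM-II riboswitches the laboratory earlier reported (doi:10.1038/s41467-019-09493-3) 1 µM RNA, 2 h, and a rule that included a mean Z-score above 3 (spot signal-to-noise against the whole library), a score well above that on a control array, and duplicate spots agreeing (coefficient of variation under 100). The data file gives only the calls; its cut-offs may differ, and compounds hitting several targets are kept. The calls come from the array alone, and fixing a compound to the slide can hide its binding.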 A compound is marked active if it was called a hit and inactive if it was screened but was not. The compounds are a random part of those screened. A target missing from an entry has no call listed here. A dash means that no call is listed here.

{"structure": "Cc1ccc(-c2nc3cnccn3c2Nc2cccc(C(=O)O)c2)cc1", "T2": "inactive", "T3": "inactive"}
{"structure": "CC1(C)CNc2cc(NC(=O)c3cccnc3NCc3ccncc3)ccc21", "T1": "inactive", "T2": "inactive", "T3": "inactive"}
{"structure": "Cc1nc[nH]c1C(=O)N1CCN(c2ccncc2)CC(O)C1", "stereo": "stereo not shown", "T1": "inactive", "T2": "inactive", "T3": "inactive"}
{"structure": "COc1ccnc(N2C[C@@H](CN3CCOCC3)[C@@H](CO)C2)n1", "T1": "inactive", "T2": "inactive", "T3": "inactive"}
{"structure": "Cc1ccc(C(=O)Nc2cccc(C(F)(F)F)c2)cc1Nc1nc(-c2cccnc2)nc2c1cnn2C", "T1": "inactive", "T2": "inactive", "T3": "inactive"}
{"structure": "NC1(C(=O)N2CCCC(c3[nH]ncc3Cc3ccccc3)C2)CC1", "stereo": "stereo not shown", "T1": "inactive", "T2": "inactive", "T3": "inactive"}
{"structure": "CC(C)(C)n1cnc2cc(NCc3cccs3)ccc21", "T1": "inactive", "T2": "inactive", "T3": "inactive"}
{"structure": "O=C(C1=C(O)C(=O)N(CCO)C1c1ccc(F)cc1)c1ccc(Cl)cc1", "stereo": "stereo not shown", "T1": "inactive", "T2": "inactive", "T3": "inactive"}
{"structure": "CN(C)c1nc2c(c(N3CCC(O)CC3)n1)CN(Cc1nccn1C)CC2", "T1": "inactive", "T2": "inactive", "T3": "inactive"}
{"structure": "COC(=O)C1=C(N)OC2=C(C(=O)CC(C)(C)C2)C1c1cc(CN2CCOCC2)c(C)cc1C", "stereo": "stereo not shown", "T1": "inactive", "T2": "inactive", "T3": "inactive"}
{"structure": "CCCNS(=O)(=O)c1ccc(C(=O)NCc2cc3n(n2)CCNC3)cc1", "T1": "inactive", "T2": "inactive", "T3": "inactive"}
{"structure": "COc1ccc(NC2(C(=O)N3CCn4cncc4C3)CCCC2)cc1", "T1": "inactive", "T2": "inactive", "T3": "inactive"}
{"structure": "NC(=O)c1cccc2cn(-c3ccc([C@@H]4CCCNC4)cc3)nc12", "T1": "inactive", "T2": "inactive", "T3": "inactive"}
{"structure": "COc1ccc(-c2ccc(CNCCO)o2)cc1Cl", "T2": "inactive", "T3": "inactive"}
{"structure": "Nc1nn(-c2ccccc2)nc1C(=O)OCc1ccccc1Cl", "T1": "inactive", "T2": "inactive", "T3": "inactive"}
{"structure": "Nc1c(C(=O)Nc2ccc(Cl)cc2)oc2ccccc12", "T1": "inactive", "T2": "inactive", "T3": "inactive"}
{"structure": "CCOC(=O)C1=C(C)OC(N)=C(C#N)C12C(=O)Nc1ccc(F)cc12", "stereo": "stereo not shown", "T1": "inactive", "T2": "inactive", "T3": "inactive"}
{"structure": "CCCCNc1oc(-c2ccc(Cl)cc2)nc1S(=O)(=O)c1ccccc1", "T2": "inactive", "T3": "inactive"}
{"structure": "Nc1[nH]nc2nnc(-c3c(-c4ccccc4)nn4ccccc34)cc12", "T1": "inactive", "T2": "inactive", "T3": "inactive"}
{"structure": "COCC1(C(=O)N2CCC(Cc3ccc(CO)cc3)C2)CCC1", "stereo": "stereo not shown", "T1": "inactive", "T2": "inactive", "T3": "inactive"}
{"structure": "C=CCn1c(-c2ccccc2Cl)cn2cc(C(=O)N3CCN[C@H](C)C3)nc2c1=O", "T1": "inactive", "T2": "inactive", "T3": "inactive"}
{"structure": "O=c1cc(CO)oc(C(Nc2ccccc2F)c2ccccn2)c1O", "stereo": "stereo not shown", "T1": "inactive", "T2": "inactive", "T3": "inactive"}

3 of the entries, repeated:

structure,T1,T2,T3
COc1ccc(NC2(C(=O)N3CCn4cncc4C3)CCCC2)cc1,inactive,inactive,inactive
CCCCNc1oc(-c2ccc(Cl)cc2)nc1S(=O)(=O)c1ccccc1,-,inactive,inactive
Cc1nc[nH]c1C(=O)N1CCN(c2ccncc2)CC(O)C1 (stereo not shown),inactive,inactive,inactive